# Assay results

Source: PubChem BioAssay AID1159506 (NCATS, 2015).

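Genome-wide siRNA knockdown in TC32 Ewing sarcoma cells, comparing luciferase light from an NR0B1-promoter reporter with a CMV-promoter reporter 48 hours after transfection. Each siRNA was applied at 20 nM. A z-score of the log NR0B1-over-CMV signal, less the median of siRNAs with the same seed; more negative means a stronger specific loss of the NR0B1 reporter.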

This is part of the screen; most of the strongest results are not listed here. Sequences are the guide (antisense) strand, without overhang.

With UGUCUUUGCACUGAACUGG against ZNF441 the assay gave seed-corrected z-score -1.617.
With UUAAACCACAGGUAGGAUG against SURF1 the assay gave seed-corrected z-score -1.058.
With AUCCCUAUCCCUAUCGUCC against EIF3A the assay gave seed-corrected z-score 1.91.
With UCCUGUAUAUAUCCAAACC against OR5T3 the assay gave seed-corrected z-score 0.2033.
With UUUUCUCCUGUAGAUAUUG against PPIL6 the assay gave seed-corrected z-score 0.7336.
With UCCGUUGGACUUUCUAUCC against ATMIN the assay gave seed-corrected z-score -0.8746.
With UCUUGUCCCAUCAAACUUC against CD22 the assay gave seed-corrected z-score -0.4467.
With AUAGUCUUCGUUGUUCUCG against TOX2 the assay gave seed-corrected z-score 1.367.
With UAUGCUGACAUUAAGGAGC against RSPH14 the assay gave seed-corrected z-score 0.2545.
With UUCUCUAGGACAAAGCAUG against MAGED1 the assay gave seed-corrected z-score 0.0538.
With ACCUUGGUAAGCUCAGCCC against TPD52L2 the assay gave seed-corrected z-score -0.09943.
With UCCUGGACCGGUUUUUGCU against TMEM200C the assay gave seed-corrected z-score -0.005494.
With UUACCUUGACCAUUGGAUC against IGF2BP2-AS1 the assay gave seed-corrected z-score -0.3312.
With UGCUAUUUCACGUCAGCCC against FLJ38576 the assay gave seed-corrected z-score -0.3982.
With AGAGUAGUUGUCAAAAACG against RAC3 the assay gave seed-corrected z-score -0.09701.
With AUAGAUAGCACCCUGGAUC against SIGLECL1 the assay gave seed-corrected z-score 0.7059.
With UUCCGGGUCUCAAUGGUCU against PRPH the assay gave seed-corrected z-score 0.3234.
With UGUUGUUGUAGGUGUACGC against IGFALS the assay gave seed-corrected z-score 0.7547.
With UUGGGAUACUCAGGACUGG against CDCP2 the assay gave seed-corrected z-score 0.8984.
With UCUGGAUCAGGGAAGUUAC against YOD1 the assay gave seed-corrected z-score -0.5549.
With UGCAGUCUCACCCUCCAAG against ENTPD8 the assay gave seed-corrected z-score -0.1598.
With UAAUGUCCAAACAACCAUG against TBCK the assay gave seed-corrected z-score -0.5919.
With UCUUGAACAGCCGCUUCAC against FBXW5 the assay gave seed-corrected z-score -0.3778.
With AAUGUUCUUCCCGAUGUCC against NOB1 the assay gave seed-corrected z-score -0.866.

For reference, 3 entries once more:

With UUCCGGGUCUCAAUGGUCU against PRPH the assay gave seed-corrected z-score 0.3234.
With UGUCUUUGCACUGAACUGG against ZNF441 the assay gave seed-corrected z-score -1.617.
With UUUUCUCCUGUAGAUAUUG against PPIL6 the assay gave seed-corrected z-score 0.7336.